This passage reports binding results from publication PMC11312917.

Results are given in words; binding and its absence hold for the method and conditions named. A result given as binding can be weak or reduced; the word gives no strength. Where a sequence is shown, tags or fusion partners need not be part of it. For some assays here: In cells and extracts the contact can be indirect.

The target of assay [1] is T1, isolated PDZ domain of Pdlim5 fused to a Golgi localization sequence (human) (UniProt Q96HC4).
T1 sequence: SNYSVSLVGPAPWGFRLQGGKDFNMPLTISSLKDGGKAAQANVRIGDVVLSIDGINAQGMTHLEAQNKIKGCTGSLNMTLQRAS
The assay can be described thus: Golgi co-relocalization assay (immunofluorescence, confocal microscopy); HT-22 cells co-transfected with one domain fused to the Golgi localization sequence (GLS) of mTOR and the partner domain without GLS; fixed 24 h after transfection; Pearson's correlation of red and green channels at the Golgi.

Assay [2] deals with T2, myc-tagged isolated PDZ domain of Pdlim5 (human) (UniProt Q96HC4).
T2 sequence: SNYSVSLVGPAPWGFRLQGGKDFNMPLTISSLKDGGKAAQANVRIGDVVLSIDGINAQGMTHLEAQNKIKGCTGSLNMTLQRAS
The assay can be described thus: co-IP; HEK-293 cells co-expressing myc-PDZ and flag-LIM; NP40 lysis buffer (HEPES, KCl, MgCl2, glycerol); pull-down of myc-PDZ, Protein-A/G Dynabeads, 4 °C; immunoblot for flag-LIM; triplicate, band intensities quantified. Background: Immunoblotting shows a protein as a band on a membrane.

Assay [3] has as its target isolated LIM domain of Pdlim5 fused to a Golgi localization sequence (human). The assay can be described thus: Golgi co-relocalization assay (immunofluorescence, confocal microscopy); HT-22 cells co-transfected with one domain fused to the Golgi localization sequence (GLS) of mTOR and the partner domain without GLS; fixed 24 h after transfection; Pearson's correlation of red and green channels at the Golgi.

Take “isolated LIM domain of Pdlim5 with 4x point mutation (human) (domain or fragment)”: the binding result in assay [1] is on record as “no binding”.
On the same count and under the same terms, to “isolated LIM domain of Pdlim5 (not fused to GLS) (human) (domain or fragment)” belongs “binds”.
In the case of “flag-tagged isolated LIM domain of Pdlim5 (human) (domain or fragment)”, in assay [2], the binding result is listed as “binds”.

B1: isolated PDZ domain of Pdlim5 (not fused to GLS) (domain or fragment, UniProt Q96HC4 2-85)
chain: SNYSVSLVGPAPWGFRLQGGKDFNMPLTISSLKDGGKAAQANVRIGDVVLSIDGINAQGMTHLEAQNKIKGCTGSLNMTLQRAS
Take B1: the binding entry in assay [3] is on record as “binds”.

B2: isolated PDZ domain of Pdlim5 with 4x point mutation (domain or fragment, UniProt Q96HC4 2-85)
chain: SNYSVSLVGPAGWGFALQGGKDFNMPLTISSLGDGGKAAQANVRIGDVVLSIDGINAQGMTHLEAQNKIAGCTGSLNMTLQRAS
In the case of B2, the binding result in assay [3] was “no binding”.
